“And” between values parts separate entries of the source, which are not always exact repeats. Equal entries are not always repeated. The name of at least one read-out is uncertain.
What was measured:
[1] = test system: BRAPP (Brachiaria platyphylla, broadleaf signalgrass); experiment: Postemergence foliar-applied weed control, direct seeded rice, greenhouse (Example I); type: in vivo, Brachiaria platyphylla (Griseb.) Nash; settings: 20 DAA
Excerpt: (§1) Seeds or nutlets of the desired test plant species were planted in a soil matrix prepared by mixing a loam or sandy loam soil (e.g., 28.6 percent silt, 18.8 percent clay, and 52.6 percent sand, with a pH of about 5.8 and an organic matter content of about 1.8 percent) and calcareous grit in an 80 to 20 ratio. The soil matrix was contained in plastic pots with a volume of 1 quart and a surface area of 83.6 square centimeters (cm^2). When required to ensure good germination and healthy plants, a fungicide treatment and/or other chemical or physical treatment was applied. The plants were grown for 8-22 days in a greenhouse with an approximate 14 h photoperiod which was maintained at about 29° C. during the day and 26° C. during the night. Nutrients (Peters Excel® 15-5-15 5-Ca 2-Mg and iron chelate) were applied in the irrigation solution as needed and water was added on a regular basis. […]
(§2) Treatment requirements were calculated based upon the rates being tested, the concentration of active ingredient or acid equivalent in the formulation, and a 12 mL application volume at a rate of 187 L/ha.
(§3) For treatments comprised of formulated compounds, measured amounts of compounds were placed individually in 25 mL glass vials and diluted in a volume of 1.25% (v/v) Agri-Dex® crop oil concentrated to obtain 12× stock solutions. […]

[2] = test system: LEFCH (Leptochloa chinensis, Chinese sprangletop); experiment: as above; type: in vivo, Leptochloa chinensis (L.) Nees
Excerpt: as §1, §2, §3

## COc1c(Cl)ccc(-c2nc(C(=O)OCc3ccccc3)c(Cl)c(N)c2F)c1F [Compound A Benzyl Ester]
[1]; 4.38 gae/ha
  Visual Weed Control (%) Obs: 40%
[1]; 8.75 gae/ha
  Visual Weed Control (%) Obs: 70%
[2]; 20 DAA, 4.38 gae/ha
  Visual Weed Control (%) Obs: 10% and 0%
[2]; 21 DAA, 8 gae/ha
  Visual Weed Control (%) Obs: 25%
